# Data taken from patent publication US5166136 (dated 1992).
# Assay: general procedure: peptide synthesis; Kieselguhr supported polydimethylacrylamide resin (0.09 mmol/g loading); DCC/1-hydroxybenzotriazole; pentafluorophenyl esters
# Conditions: coupling step, h.p.l.c.
row,Substance,final HPLC purity
1,"N-[N^1 -[N-(5-aminopentanoyl)-L-phenylalanyl-L-phenylalanyl]4-methyl-1-oxo-2S-(7- oxo-6S-1,8-diazaspiro[5.4]decan-8-yl)pentyl]-L-methionamide",100%
2,"N-[N^1 -[N-(5-aminopentanoyl)-L-phenylalanyl-L-phenylalanyl]-4-methyl-1-oxo-2R-(6-oxo-5S-1,7-diazaspiro[4.4]nonan-7-yl)pentyl]-L-methionamide",100%
3,"N-[N^1 -[N-(5-aminopentanoyl)-L-phenylalanyl-L-phenylalanyl]-4-methyl-1-oxo-2S-(6-oxo-5S-1,7-diazaspiro[4.4]nonan-7-yl)-pentyl]-L-tryptophanamide",99%
4,"N-[N^1 -[N-(5-aminopentanoyl)-L-phenylalanyl-L-phenylalanyl]-4-methyl-1-oxo-2S-(6-oxo-5S-1,7-diazaspiro[4.4]nonan-7-yl)pentyl]-D-methionamide",99%
5,"N-[N^1 -[N-(5-aminopentanoyl)-L-phenylalanyl-L-phenylalanyl]-4-methyl-1-oxo-2S-(6-oxo-5S-1,7-diazaspiro[4.4]nonan-7-yl)pentyl]-L-cyclohexylalanamide",99.8%
6,"N-[N^1 -[N-(5-aminopentanoyl)-L-phenylalanyl-L-phenylalanyl]-4-methyl-1-oxo-2S-(6-oxo-5S-1,7-diazaspiro[4.4]nonan-7-yl)pentyl]-L-homophenylalanamide",100%
7,"N-[N^1 -[N-(5-aminopentanoyl)-L-phenylalanyl-L-phenylalanyl]-4-methyl-1-oxo-2S-(6-oxo-5S-1,7-diazaspiro[4.4]nonan-7-yl)pentyl]-L-phenylalanamide",97.6%
8,"N-[N^1 -[pyroglutamyl-L-phenylalanyl-L-phenylalanyl]-4-methyl-1-oxo-2S-(6-oxo-5S- 1,7-diazaspiro[4.4]nonan-7-yl)pentyl]-L-methionamide",99%

# Same assay, conditions: whole synthesis, h.p.l.c., scale of the general procedure 1.5 g resin
row,Substance,final HPLC purity
1,"N-[N^1 -[L-Arginyl-L-prolyl-L-lysyl-L-prolyl-L-glutaminyl-L-glutaminyl-L-phenylalanyl-L-phenylalanyl]-4-methyl-1-oxo-2S-(6-oxo-5S-1,7-diazaspiro[4.4]nonan-7-yl)-pentyl]-L-tryptophanamide.",99%
2,"N-[N^1 -[L-glutaminyl-L-glutaminyl-L-phenylalanyl-L-Phenylalanyl]-4-methyl-1-oxo- 2S-(6-oxo-5S-1,7-diazaspiro[4.4]nonan-7-yl)pentyl]-L-tryptophanamide",78%
3,"N-[N^1 -[L-lysyl-L-prolyl-L-glutaminyl-L-glutaminyl-L-phenylalanyl-L-phenylalanyl]-4-methyl-1-oxo-2S-(6-oxo-5S-1,7-diazaspiro[4.4]nonan-7-yl)pentyl]-L-tryptophanamide",71%
4,"N-[N^1 -[L-phenylalanyl-L-phenylalanyl]-4-methyl-1-oxo-2S-(6-oxo-5S-1,7-diazaspiro[4.4]nonan-7-yl)pentyl]-L-tryptophanamide",87%
5,"N-[N^1 -[L-phenylalanyl]-4-methyl-1-oxo-2S-(6-oxo-5S-1,7-diazaspiro[4.4]nonan-7-yl)pentyl]-L-tryptophanamide",80%
6,"N-[N^1 -[L-prolyl-L-glutaminyl-L-glutaminyl-L-phenylalanyl-L-phenylalanyl]-4-methyl-1-oxo-2S-(6-oxo-5S-1,7-diazaspiro[4.4]nonan-7-yl)pentyl]-L-methionamide",99%
7,"N-[N^1 -[L-pyroglutamyl-L-alanyl-L-aspartyl-L-prolyl-L-asparaginyl-L-glutaminyl-L-phenylalanyl-L-tyrosyl]-4-methyl-1-oxo-2S-(6-oxo-5S-1,7-diazaspiro[4.4]nonan-7-yl)pentyl]-L-tryptophanamide",99%
8,"N-[N^1 -[L-pyroglutamyl-L-alanyl-L-aspartyl-L-prolyl-L-asparaginyl-L-lysyl-L-phenylalanyl-L-tyrosyl]-4-methyl-1-oxo-2S-(6-oxo-5S-1,7-diazaspiro[4.4]nonan-7- yl)pentyl]-L-trytophanamide",99%
9,"N-[N^1 -[L-pyroglutamyl-L-alanyl-L-aspartyl-L-prolyl-L-asparaginyl-L-methionyl-L- phenylalanyl-L-tyrosyl]-4-methyl-1-oxo-2S-(6-oxo-5S-1,7-diazaspiro[4.4]nonan-7-yl)pentyl]-L-tryptophanamide",96%
10,"N-[N^1 -[L-pyroglutamyl-L-prolyl-L-aspartyl-L-prolyl-L-asparaginyl-L-lysyl-L-phenylalanyl-L-tyrosyl]-4-methyl-1-oxo-2S-(6-oxo-5S-1,7-diazaspiro[4.4]nonan-7- yl)pentyl]-L-tryptophanamide",97%
11,"N-[N^1 -[L-pyroglutamyl-L-prolyl-L-aspartyl-L-prolyl-L-asparagyl-L-alanyl-L-phenylalanyl-L-tyrosyl]-4-methyl-1-oxo-2S-(6-oxo-5S-1,7-diazaspiro[4.4]nonan-7-yl)pentyl]-L-tryptophanamide",99%
12,"N-[N^1 -[L-pyroglutamyl-L-prolyl-L-aspartyl-L-prolyl-L-glutaminyl-L-glutaminyl-L- phenylalanyl-L-phenylalanyl]-4-methyl-1-oxo-2S-(6-oxo-5S-1,7-diazaspiro[4.4]nonan-7-yl)pentyl]-L-tryptophanamide",100%
13,"N-[N^1 -[pyroglutamyl-L-prolyl-L-lysyl-L-prolyl-L-glutaminyl-L-glutaminyl-L-phenylalanyl-L-phenylalanyl]-4-methyl-1-oxo-2S-(6-oxo-5S-1,7-diazaspiro[4.4]nonan-7-yl)pentyl]-L-tryptophanamide",97%
14,"N-[N^1 [L-arginyl-L-prolyl-L-lysyl-L-prolyl-L-glutaminyl-L-glutaminyl-L-phenylalanyl-L-phenylalanyl]-4-methyl-1-oxo-2S-(6-oxo-5S-1,7-diazaspiro[4.4]nonan-7- yl)pentyl]-L-methionamide",97%

# Same assay, conditions: whole synthesis, h.p.l.c., scale of the general procedure 1.5 g resin, trifluoroacetate salt
row,Substance,final HPLC purity
1,"N-[N^1 -[L-tyrosyl-L-phenylalanyl-L-tyrosyl]-4-methyl-1-oxo-2S-(6-oxo-5S-1,7-diazaspiro[4.4]nonan-7-yl)pentyl]-L-tryptophanamide, trifluoroacetate salt",99%
2,"N-[N^1 -[N-(acetyl)-L-lysyl-L-phenylalanyl-L-tyrosyl]-4-methyl-1-oxo-2S-(6-oxo-5S-1,7-diazaspiro[4.4]nonan-7-yl)pentyl]-L-tryptophanamide, trifluoroacetate salt",95%
